Results are given in words; binding and its absence hold for the method and conditions named. In cells and extracts the contact can be indirect. Some binding calls cover weakened binding; strength is not graded here. Sequences can lack the tags named with a protein.
Biological target: T1, Rps2-FLAG (C-terminally FLAG-tagged RPS2/uS5, 40S ribosomal subunit protein) (S. cerevisiae) (UniProt P25443)
T1 sequence: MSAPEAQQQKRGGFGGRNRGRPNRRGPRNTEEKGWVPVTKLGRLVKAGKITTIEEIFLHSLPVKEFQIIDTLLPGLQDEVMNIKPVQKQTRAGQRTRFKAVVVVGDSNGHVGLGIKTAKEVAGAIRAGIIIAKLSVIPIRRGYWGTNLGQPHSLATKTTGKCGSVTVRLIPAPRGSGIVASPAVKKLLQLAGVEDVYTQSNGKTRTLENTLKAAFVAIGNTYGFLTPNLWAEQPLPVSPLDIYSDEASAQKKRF
Experiment: co-IP; Rps2-FLAG-tagged 40S ribosomes immunoprecipitated from yeast lysates (WT and hES9S rRNA strains) on anti-FLAG M2 affinity agarose at 4°C, lysis buffer 20 mM Tris-HCl pH 7.5, 150 mM NaCl, 1.5 mM MgCl2, 2 mM DTT; washed (300 mM NaCl wash buffer), eluted with 3xFLAG peptide; western blot of input, unbound and elution

B1: Rps5/uS7 (40S ribosomal subunit component) (protein, UniProt P26783 1-225)
chain: MSDTEAPVEVQEDFEVVEEFTPVVLATPIPEEVQQAQTEIKLFNKWSFEEVEVKDASLVDYVQVRQPIFVAHTAGRYANKRFRKAQCPIIERLTNSLMMNGRNNGKKLKAVRIIKHTLDIINVLTDQNPIQVVVDAITNTGPREDTTRVGGGGAARRQAVDVSPLRRVNQAIALLTIGAREAAFRNIKTIAETLAEELINAAKGSSTSYAIKKKDELERVAKSNR
  binding: binds
